According to article PMC4801368, “Functional and Biochemical Characterization of Alvinella pompejana Cys-Loop Receptor Homologues” (PLoS ONE, 2016):

Tested on: Alpo6-eGFP
Assay: FSEC-based thermostability assay (FSEC-TS) of purified Alpo6-eGFP with ligands
Design: species or system Alvinella pompejana
Conditions: Alpo6-eGFP purified in presence of ligand (1 mM taurine, 30 mM GABA or 100 mM glycine), heated to 65°C during 10 min vs 4°C

Row | Structure (SMILES) | effect on thermal stability (fluorescent signal, oligomeric peak height)
1 | NCC(=O)O [glycine] | no loss of fluorescent signal
2 | NCCS(=O)(=O)O [taurine] | did not exert these stabilizing effects
3 | NCCCC(=O)O [GABA, γ-aminobutyric acid] | did not exert these stabilizing effects
